Measurements taken from PubChem BioAssay AID1671190 (National Center for Advancing Translational Sciences (NCATS), 2021).
Values joined by “and” are separate entries in the source; they are usually repeats but may differ in a detail not shown here. Equal values may be shown once. In all, about 580,000 compounds went through this assay and about 6,100 (1.1%) were called active. Inconclusive means that the source gave no clear call. Such entries were picked first, then a sample of the others. The call rests on the fitted dose curve; in most records, active means well fitted inhibition curve with a large enough effect; inconclusive means small, poorly fitted or top-dose-only effect, or another doubt; inactive means no such curve, though single readings can be large or run the other way. Potencies of inconclusive entries are doubtful fits and often do not repeat.

Protein sequences, listed by entry. Tags and fused reporters are not part of them. Lines headed by an entry give the natural chain unless they say otherwise; changes in a name come on top.
UniProt P18054: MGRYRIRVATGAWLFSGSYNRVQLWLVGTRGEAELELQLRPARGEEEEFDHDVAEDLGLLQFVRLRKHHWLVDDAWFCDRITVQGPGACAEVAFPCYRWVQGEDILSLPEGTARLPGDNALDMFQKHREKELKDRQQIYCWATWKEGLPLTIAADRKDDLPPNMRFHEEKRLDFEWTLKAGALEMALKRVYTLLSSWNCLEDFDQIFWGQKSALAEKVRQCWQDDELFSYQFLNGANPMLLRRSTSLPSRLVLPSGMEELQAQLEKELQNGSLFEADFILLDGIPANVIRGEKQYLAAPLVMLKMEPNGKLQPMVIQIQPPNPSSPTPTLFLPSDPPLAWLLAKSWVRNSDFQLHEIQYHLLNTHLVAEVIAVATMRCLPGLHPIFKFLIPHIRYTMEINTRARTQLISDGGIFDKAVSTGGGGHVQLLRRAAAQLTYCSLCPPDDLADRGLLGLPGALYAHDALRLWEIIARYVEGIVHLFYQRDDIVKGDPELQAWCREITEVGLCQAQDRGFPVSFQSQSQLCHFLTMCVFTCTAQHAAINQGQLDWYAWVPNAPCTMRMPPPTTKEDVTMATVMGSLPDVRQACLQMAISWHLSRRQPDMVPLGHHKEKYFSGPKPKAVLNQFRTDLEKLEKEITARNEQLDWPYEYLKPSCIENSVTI

These molecules were tested against Polyunsaturated fatty acid lipoxygenase ALOX12 (Homo sapiens) (UniProt P18054) (assay: Primary qHTS assay for inhibitors of human arachidonate 12S-lipoxygenase (ALOX12): Round 2). Conditions: purified 12hLO, xylenol orange hydroperoxide absorbance; activity change, negative = inhibition: at 108 µM (top of the series) unless noted.
How it was run: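 Purified human 12hLO (150 nM final) in 25 mM Hepes, 0.01% Triton X-100, pH 7.0 was preincubated 15 min at room temperature with compound. Then 40 uM arachidonic acid was added, 30 min. Hydroperoxide was read by Fe-XO absorbance ratio 573/405 nm.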
On the % scale 0 is the no-effect control and ±100 the full control effect; potency means the concentration at half of the fitted maximal effect.

Compound | Potency | activity change, negative = inhibition
O=C(Nc1ccc2c(c1)OCO2)C1CC(=O)N(c2cccc(Cl)c2)C1 (stereo unspecified) | inconclusive: 112 µM [inhibitor, partial curve, poor fit] | –
CN(C)S(=O)(=O)c1ccc2c(c1)nnn2CCNC(=O)Nc1ccc(Cl)cc1 | inconclusive: 126 µM [inhibitor, single point] | –
O=C(Oc1ccc(Cl)cc1)C1CCCC(C(=O)Oc2ccc(Cl)cc2)C1 (stereo unspecified) | – | inactive: 13.6%
Cc1ccc(NC(C(=O)c2ccccc2)c2ccccc2)cc1 (stereo unspecified) | inconclusive: 63.1 µM [inhibitor, partial curve, poor fit] | –
Cc1ccc(C(=O)N2CCC3(CC2)Cc2ccccc2NC3=O)cc1 | inconclusive: 79.4 µM [inhibitor, partial curve] | –
O=C(NCc1ccc2c(c1)OCO2)c1nc(-c2cccc(C(F)(F)F)c2)c2cnccn12 | inconclusive: 28.2 µM [inhibitor, partial curve, poor fit] | –
COc1cccc(C=CC(=O)C=CC=Cc2ccccc2)c1 | inconclusive: 63.1 µM [inhibitor, partial curve, poor fit] | –
COCCSc1nnc(NC(=O)C2CC(=O)N(c3ccc(Cl)cc3)C2)s1 (stereo unspecified) | inconclusive: 44.7 µM [inhibitor, partial curve, poor fit] | –
COC(=O)[C@@]1(Sc2ccc(OC)cc2)CC(=O)N(c2ccc(OC)cc2C)[C@@H]1c1ccc(OC(C)C)c(OC)c1 | inconclusive: 44.7 µM [inhibitor, partial curve, poor fit] | –
O=C1CCc2cc(C(=O)OC3CCOC3=O)ccc2N1 (stereo unspecified) | – | inactive: 9.85%
Cn1nnnc1Sc1ncnc2scc(-c3cccc(S(C)(=O)=O)c3)c12 | – | inactive: -5.17%
CC(=O)c1ccc(OCCn2c(SCC(=O)O)nc3ccccc32)cc1 | inconclusive: 89.1 µM [inhibitor, partial curve, poor fit] | –
CCCCCCNC(=O)c1ncn[nH]1 | inconclusive: 79.4 µM [inhibitor, single point] | –
COc1ccc(NS(=O)(=O)c2ccc(Br)s2)cc1OC | inconclusive: 126 µM [inhibitor, single point] | –
C=CCN1C(=O)C(CC(=O)Nc2ccc(OC)cc2)N(Cc2ccco2)C1=S (stereo unspecified) | inconclusive: 31.6 µM [inhibitor, partial curve, poor fit] | –
COc1cccc(CNC(=O)CCNC(=O)N2CCn3c2nc2ccccc23)c1 | – | inactive: 1.93%
CC(Oc1ccccc1Cl)C(=O)NN (stereo unspecified) | – | inactive: 40.8%
O=C1COc2ccc(-c3csc(Nc4ccc(F)cc4)n3)cc2N1 | inconclusive: 6.31 µM [inhibitor, full curve] | –
Cc1nc(C)c(/C(O)=C\c2nc3ccc([N+](=O)[O-])cc3oc2=O)o1 | – | inactive: 0%
O=C(CN(C1CCCCC1)S(=O)(=O)c1ccc(F)cc1)NCc1ccncc1 | – | inactive: 333%
Cc1ccc(OCC(=O)NCCC2CCN(C(=O)Nc3ccccc3F)CC2)cc1 | – | inactive: 18%
COc1ccc(OC)c(CN2CCN(Cc3ccc(C(F)(F)F)cc3)CC2)c1 | inconclusive: 1.12 µM [inhibitor, full curve] | –

Compound | Potency | activity change, negative = inhibition
CCCC(=O)OCCNc1cc(SCc2ccco2)c2nonc2c1[N+](=O)[O-] | inconclusive: 50.1 µM [inhibitor, partial curve, poor fit] | –
FC(F)C(F)(F)Oc1cccc(-c2n[nH]c(=S)n2Cc2ccccc2)c1 | inconclusive: 50.1 µM [inhibitor, partial curve, poor fit] | –
CC(=O)N1CCN(c2ccc(NC(=O)c3ccc(Cl)c([N+](=O)[O-])c3)cc2)CC1 | – | inactive: 0%
COc1ccc(-n2c3c(cc(C(=O)Nc4ccc(C)cc4)c2=O)C(=O)CCC3)cc1 | inconclusive: 5.01 µM [inhibitor, partial curve, poor fit] | –
CC1=C(C(=O)Nc2ccccc2C(F)(F)F)C(c2ccc(C)s2)NC(=S)N1 (stereo unspecified) | inconclusive: 0.316 µM [inhibitor, full curve, poor fit] | –
Cc1ccc2oc(=O)cc(CN3CCN(c4ccccc4)CC3)c2c1 | inconclusive: 2 µM [inhibitor, full curve, poor fit] | –
O=C(NCc1ccncc1)Nc1ccc(Cl)cc1Cl | inconclusive: 79.4 µM [inhibitor, partial curve, poor fit] | –
O=C(Nn1cnnc1)c1ccc(Cl)c(Cl)c1 | inactive and inconclusive: 44.7 µM [inhibitor, partial curve, poor fit] | –
CC(C)CC(NC(=O)CC(C)(C)CC(=O)O)c1ccccc1 (stereo unspecified) | – | inactive: -3.51%
CCc1nnc(SCC(=O)N(CC)c2ccccc2)c2cc3oc(C)cc3n12 | inconclusive: 89.1 µM [inhibitor, partial curve, poor fit] | –
Cc1cc(C)nc(Nc2ccc(C)c([N+](=O)[O-])c2)n1 | inconclusive: 44.7 µM [inhibitor, partial curve, poor fit] | –
CCOC(=O)C1C(c2cc(OC)c(OC)c(OC)c2)NC(=S)NC1(O)C(F)(F)F (stereo unspecified) | inconclusive: 22.4 µM [inhibitor, partial curve, poor fit] | –
O=C(NCc1ccc(F)cc1)C1CC(=O)N(C2CCCCCCC2)C1 (stereo unspecified) | – | inactive: -0.189%
Cc1ccc2c(c1)C=CC(C)(C)S2=O (stereo unspecified) | – | inactive: -21.9%
Cc1ccc(CN2C(=O)NC3(CCCN(C(=O)c4cc(Cl)ccc4F)C3)C2=O)cc1 (stereo unspecified) | inconclusive: 22.4 µM [inhibitor, full curve, poor fit] | –
Cc1cc(NC(=O)C(C)SCC(=O)N(C)CC(=O)Nc2ccc(Br)cc2C)no1 (stereo unspecified) | – | inconclusive: -30.8% [inhibitor]
COCCn1c(=O)n([C@H]2CCCN(C(=O)CC3CCCCC3)C2)c2ncccc21 | – | inactive: 45.7%
NC(=O)CCN(C(=O)c1cccc(C(F)(F)F)c1)c1ccccc1 | – | inactive: -32%
CC(=O)NNC(=O)c1sc(=S)n2c1[nH]c(=O)c1sccc12 | inconclusive: 25.1 µM [inhibitor, partial curve, poor fit] | –
Cc1cc(C)c(NC(=O)c2ccc(S(=O)(=O)N3CCCC3)cc2)c(Cl)c1 | – | inactive: 0.517%
O=C(c1cccnc1-c1nc2ccccc2s1)N1CCOCC1 | inconclusive: 2.51 µM [inhibitor, partial curve, poor fit] | –
COc1ccc(NC(=O)c2ccc(NC(=O)CN(C)CC(=O)Nc3c(C)cccc3C)cc2)cc1 | – | inactive: -6.64%

Compound | Potency | activity change, negative = inhibition
NC(=O)C1CCN(c2cc(-c3noc([C@@H]4CCCN4Cc4ccc(Cl)cc4)n3)ccn2)CC1 | – | inactive: -7.52%
Cc1ccc(CN2CCSc3ccc(C(=O)Nc4ccc(C)cc4)cc32)cc1 | inconclusive: 56.2 µM [inhibitor, partial curve, poor fit] | –
CC(C)CC1NC(=O)c2ccccc2-n2c1nc1ccc(F)cc1c2=O (stereo unspecified) | inconclusive: 79.4 µM [inhibitor, partial curve, poor fit] | –
COc1cc(Cl)c(C)cc1NC(=S)NN | inconclusive: 44.7 µM [inhibitor, partial curve, poor fit] | –
COc1ccc(C(=O)Nc2c(NCC3CCCCC3)c3ccccc3oc2=O)cc1 | inconclusive: 0.316 µM [inhibitor, single point] | –
OCc1cccc(-c2ccc3ncc(Nc4ccccc4Cl)n3n2)c1 | inconclusive: 63.1 µM [inhibitor, partial curve, poor fit] | –
CC(=O)Nc1ccc(NC(=O)COC(=O)c2cc([N+](=O)[O-])ccc2N2CCOCC2)cc1 | – | inactive: 0%
Cc1ccc(CN2CCC(N3CC(C)OC(C)C3)CC2)cc1 (stereo unspecified) | inconclusive: 0.355 µM [inhibitor, full curve] | –
Cc1ccc(C)c(S(=O)(=O)N2CCN(C(=O)c3cc(S(=O)(=O)NCc4ccccc4)ccc3C)CC2)c1 | – | inactive: 474%
CC(C)CN1CCC(=O)N([C@H](CSc2ccc(Br)cc2)Cc2ccccc2)CC1 | – | inactive: -5.05%
CC(=O)NCCCC(=O)N1CCOC2(CCN(C(=O)CCCN)CC2)C1 | – | inactive: 2.92% [at 6.33 µM]
CN(C)c1ccc(C=NN2CCCCCC2)cc1 | inconclusive: 50.1 µM [inhibitor, partial curve, poor fit] | –
O=C(Nc1ccc(Br)cc1)N1CCSc2ccccc21 | inconclusive: 79.4 µM [inhibitor, single point] | –
CC(=O)[C@@H]1[C@@H](C(=O)c2ccc(F)cc2)[C@]2(C(=O)Nc3ccccc32)[C@H]2C=Cc3cc(F)ccc3N12 | inconclusive: 10 µM [inhibitor, partial curve, poor fit] | –
Cc1cn2nc(C(=O)Nc3ccc(N(C)C)cc3)cc2c(N2CCCC2)n1 | inconclusive: 89.1 µM [inhibitor, single point] | –
CCOc1ccccc1CNCc1ccco1 | inconclusive: 35.5 µM [inhibitor, full curve, poor fit] | –
Cc1ccc(NC(=O)C2CCN(C(=O)OC(C)(C)C)CC2)cc1S(=O)(=O)N1CCCCC1 | inconclusive: 50.1 µM [inhibitor, partial curve, poor fit] | –
COc1ccc(Cl)cc1Nc1nc(-c2sc(NC(=O)c3ccco3)nc2C)cs1 | inconclusive: 63.1 µM [inhibitor, partial curve, poor fit] | –
O=C(OC(C(=O)NCc1cccs1)c1ccccc1Cl)c1ccco1 (stereo unspecified) | inconclusive: 56.2 µM [inhibitor, partial curve, poor fit] | –
O=C1OCCN1S(=O)(=O)Nc1ccccc1 | inconclusive: 35.5 µM [inhibitor, single point] | –
CC(=O)NC(NC(=S)Nc1ccc(S(N)(=O)=O)cc1)C(Cl)(Cl)Cl (stereo unspecified) | – | inactive: 0%
Cc1cc(NC(=S)Nc2ccccc2)ccc1Br | inconclusive: 44.7 µM [inhibitor, partial curve, poor fit] | –
